Taken from: PubChem BioAssay AID1224828 (NIAID, 2016)
Here is a random part of about 17,000 reagents tested. Over the whole deposit, 762 (4.5%) were called active. 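Active calls include both raised and lowered p65 entry, mostly lowered; wells with fewer than 50 cells lack a z-score.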 The raw values are shown without normalisation. A number with no mark means an inactive call. Reagent sequences are not shown.

Assay: 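Regulators linking TLR4 signalling to p65 nuclear translocation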 (primary screen)
System: mouse RAW264.7 G9 macrophage reporter cells (GFP-p65, Tnf promoter-mCherry)
Reagents: siRNA pool against mouse genes, 100 nM
Time to read-out: 2 days siRNA transfection, then 40 min LPS before fixation
Challenge: LPS (Salmonella minnesota R595) at 10 ng/ml
Detection: 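Imaged p65 nuclear translocation ratio, normalised to the plate median, converted to robust z-scores and averaged across two replicates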
Scale: p65 translocation robust z-score: higher = more nuclear NF-kappaB p65 after LPS than the plate median; nuclear/cytoplasmic p65 ratio: higher = more nuclear NF-kappaB p65
Call rule: 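Active if robust z is above 3.3 (negative regulators) or below -1.56, the Tlr4 control median (positive regulators); activity score 50 or more; control wells not called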
Calls: active = hit (p65 shift raised or lowered); inactive = no clear change

Zfp54 (GeneID 22712) | p65 translocation robust z-score: -1.3; nuclear/cytoplasmic p65 ratio, rep 1: 1.15; nuclear/cytoplasmic p65 ratio, rep 2: 1.1; low cell count flag: enough cells to score
Pif1 (GeneID 208084) | p65 translocation robust z-score: 1.67; nuclear/cytoplasmic p65 ratio, rep 1: 1.73; nuclear/cytoplasmic p65 ratio, rep 2: 2.08; low cell count flag: enough cells to score
Pmp22 (GeneID 18858) | p65 translocation robust z-score: -0.11; nuclear/cytoplasmic p65 ratio, rep 1: 1.45; nuclear/cytoplasmic p65 ratio, rep 2: 1.43; low cell count flag: enough cells to score
Tab2 (GeneID 68652) | p65 translocation robust z-score: -0.95; nuclear/cytoplasmic p65 ratio, rep 1: 1.32; nuclear/cytoplasmic p65 ratio, rep 2: 1.22; low cell count flag: enough cells to score
Serpina5 (GeneID 268591) | p65 translocation robust z-score: 0.39; nuclear/cytoplasmic p65 ratio, rep 1: 1.6; nuclear/cytoplasmic p65 ratio, rep 2: 1.62; low cell count flag: enough cells to score
Dad1 (GeneID 13135) | p65 translocation robust z-score: -0.43; nuclear/cytoplasmic p65 ratio, rep 1: 1.45; nuclear/cytoplasmic p65 ratio, rep 2: 1.27; low cell count flag: enough cells to score
Tuba3a (GeneID 22144) | p65 translocation robust z-score: -0.09; nuclear/cytoplasmic p65 ratio, rep 1: 1.58; nuclear/cytoplasmic p65 ratio, rep 2: 1.41; low cell count flag: enough cells to score

Continued (2 carried over from the part before).
Dad1 (GeneID 13135) | p65 translocation robust z-score: -0.43; nuclear/cytoplasmic p65 ratio, rep 1: 1.45; nuclear/cytoplasmic p65 ratio, rep 2: 1.27; low cell count flag: enough cells to score
Tuba3a (GeneID 22144) | p65 translocation robust z-score: -0.09; nuclear/cytoplasmic p65 ratio, rep 1: 1.58; nuclear/cytoplasmic p65 ratio, rep 2: 1.41; low cell count flag: enough cells to score
Ercc8 (GeneID 71991) | p65 translocation robust z-score: 0.17; nuclear/cytoplasmic p65 ratio, rep 1: 1.47; nuclear/cytoplasmic p65 ratio, rep 2: 1.42; low cell count flag: enough cells to score
Sox18 (GeneID 20672) | p65 translocation robust z-score: -0.15; nuclear/cytoplasmic p65 ratio, rep 1: 1.53; nuclear/cytoplasmic p65 ratio, rep 2: 1.53; low cell count flag: enough cells to score
Slc61a1 (GeneID 106073) | p65 translocation robust z-score: -0.47; nuclear/cytoplasmic p65 ratio, rep 1: 1.43; nuclear/cytoplasmic p65 ratio, rep 2: 1.55; low cell count flag: enough cells to score
Btg4 (GeneID 56057) | p65 translocation robust z-score: 0.58; nuclear/cytoplasmic p65 ratio, rep 1: 1.79; nuclear/cytoplasmic p65 ratio, rep 2: 1.62; low cell count flag: enough cells to score
H2-D4 (GeneID 14967) | p65 translocation robust z-score: 0.55; nuclear/cytoplasmic p65 ratio, rep 1: 1.64; nuclear/cytoplasmic p65 ratio, rep 2: 1.7; low cell count flag: enough cells to score
Oaz3 (GeneID 53814) | p65 translocation robust z-score: 1.38; nuclear/cytoplasmic p65 ratio, rep 1: 1.6; nuclear/cytoplasmic p65 ratio, rep 2: 1.62; low cell count flag: enough cells to score
Vmn2r37 (GeneID 22305) | p65 translocation robust z-score: -0.98; nuclear/cytoplasmic p65 ratio, rep 1: 1.16; nuclear/cytoplasmic p65 ratio, rep 2: 1.2; low cell count flag: enough cells to score
